Data as given in PubChem BioAssay AID686938 (Drosophila RNAi Screening Center, 2013).
The deposit covers about 23,000 reagents; this is a random part of those with a known target gene and a result. Over the whole deposit, 75 (0.33%) are marked active. 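Raw plate signals without normalisation; calls rest on plate z-scores that were not deposited; ratio present for only 364 wells.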 A plus sign joins genes that one reagent is predicted to hit. Not given: the dose of the treatment.

Aim: 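Knock-downs reducing store-operated calcium influx in Drosophila cells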 (primary screen)
Cell system: Drosophila S2R+ cells
Reagent: long dsRNA against Drosophila genes, about 0.25 µg dsRNA per well, roughly 10,000 cells
Time to read-out: 5 days of knock-down before the calcium assay
Challenge: thapsigargin (SERCA pump blocker) to empty calcium stores; entry signal taken 4 min after adding it
Measurement: 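Duplicate raw fluo-4 intensities per well from a plate reader, at rest and four minutes after thapsigargin emptied calcium stores; entry-to-rest ratio filled for only some wells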
Direction: calcium entry signal: higher = stronger calcium signal after store depletion; resting calcium signal: higher = higher resting calcium signal
Hit rule: 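Hit if the duplicate-averaged plate z-score for entry over resting signal is under −3; wells with weak total dye signal (Fmax z < −2) or more than 5 off-targets removed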
Meaning of the calls: active = strongly reduced calcium entry; inactive = no strong reduction

| Gene | amplicon | calcium entry signal, replicate 1 (fluorescence units) | calcium entry signal, replicate 2 (fluorescence units) | resting calcium signal, replicate 1 (fluorescence units) | resting calcium signal, replicate 2 (fluorescence units) | outcome |
| --- | --- | --- | --- | --- | --- | --- |
| CG31360 | DRSC13255 | 4.37e7 | 3.06e7 | 2.15e7 | 1.53e7 | inactive |
| dpr19 (defective proboscis extension response 19) | DRSC02237 | 3.53e7 | 4.91e7 | 1.68e7 | 2.01e7 | inactive |
| milt (milton) | DRSC00965 | 3.29e7 | 3.35e7 | 1.93e7 | 1.48e7 | inactive |
| milt (milton) | DRSC00966 | 2.76e7 | 3.07e7 | 1.62e7 | 1.56e7 | inactive |
| milt (milton) | DRSC02281 | 4.29e7 | – | 2.00e7 | – | inactive |
| NimB4 (Nimrod B4) | DRSC01884 | 4.17e7 | – | 1.97e7 | – | inactive |
| dmrt11E (doublesex-Mab related 11E) | DRSC19715 | 3.00e7 | 2.71e7 | 1.61e7 | 1.42e7 | inactive |
| Prm (Paramyosin) | DRSC08941 | 3.87e7 | 5.02e7 | 2.01e7 | 2.21e7 | inactive |
| Prm (Paramyosin) | DRSC08942 | 4.25e7 | 4.51e7 | 2.26e7 | 2.49e7 | inactive |
| Prm (Paramyosin) | DRSC11255 | 3.89e7 | 3.00e7 | 2.67e7 | 1.34e7 | inactive |
| CG33303 | DRSC02848 | 3.04e7 | 4.98e7 | 1.68e7 | 2.19e7 | inactive |
| CG12507 | DRSC19463 | 4.26e7 | 2.56e7 | 2.16e7 | 1.25e7 | inactive |
| SmydA-3 (SET and MYND domain containing, arthropod-specific, member 3) | DRSC02565 | 4.42e7 | 4.17e7 | 2.00e7 | 1.94e7 | inactive |
| SmydA-3 (SET and MYND domain containing, arthropod-specific, member 3) | DRSC02566 | 3.95e7 | 4.88e7 | 1.88e7 | 2.12e7 | inactive |
| Dolk (Dolichol kinase) | DRSC07143 | 4.97e7 | 7.58e7 | 2.30e7 | 3.42e7 | inactive |
| msi (musashi) | DRSC17003 | 2.41e7 | 2.19e7 | 1.44e7 | 1.25e7 | inactive |
| CG13623 | DRSC14625 | 3.80e7 | 4.21e7 | 1.99e7 | 1.94e7 | inactive |
| PolE2 (DNA polymerase epsilon subunit 2) | DRSC09737 | 3.93e7 | 2.31e7 | 2.61e7 | 1.07e7 | inactive |
| Pka-C3 (Protein kinase, cAMP-dependent, catalytic subunit 3) | DRSC09402 | 3.34e7 | 3.63e7 | 1.56e7 | 1.85e7 | inactive |
| Pka-C3 (Protein kinase, cAMP-dependent, catalytic subunit 3) | DRSC11254 | 3.57e7 | 5.93e7 | 1.51e7 | 1.84e7 | inactive |
| CG12715 | DRSC19492 | 3.70e7 | 5.05e7 | 1.85e7 | 2.46e7 | inactive |
| Ugt37A2 (UDP-glycosyltransferase family 37 member A2) | DRSC15861 | 4.05e7 | 3.78e7 | 1.90e7 | 1.91e7 | inactive |
| CG11598 | DRSC14331 | 3.27e7 | 3.52e7 | 1.47e7 | 1.67e7 | inactive |
| CG10859 | DRSC02110 | 3.85e7 | – | 1.78e7 | – | inactive |
| Tcs6 + PIG-P | DRSC13742 | 4.23e7 | 4.29e7 | 2.28e7 | 2.36e7 | inactive |
| Tcs6 + PIG-P | DRSC14893 | 3.57e7 | 5.40e7 | 2.12e7 | 2.75e7 | inactive |
| CG11275 | DRSC04095 | 3.42e7 | 6.07e7 | 1.52e7 | 2.42e7 | inactive |

In a second layout: results already given.
Gene	amplicon	calcium entry signal, replicate 1 (fluorescence units)	calcium entry signal, replicate 2 (fluorescence units)	resting calcium signal, replicate 1 (fluorescence units)	resting calcium signal, replicate 2 (fluorescence units)	outcome
SmydA-3 (SET and MYND domain containing, arthropod-specific, member 3)	DRSC02566	3.95e7	4.88e7	1.88e7	2.12e7	inactive
Dolk (Dolichol kinase)	DRSC07143	4.97e7	7.58e7	2.30e7	3.42e7	inactive
msi (musashi)	DRSC17003	2.41e7	2.19e7	1.44e7	1.25e7	inactive

Next entries follow:
| Gene | amplicon | calcium entry signal, replicate 1 (fluorescence units) | calcium entry signal, replicate 2 (fluorescence units) | resting calcium signal, replicate 1 (fluorescence units) | resting calcium signal, replicate 2 (fluorescence units) | outcome |
| --- | --- | --- | --- | --- | --- | --- |
| Taf12 (TBP-associated factor 12) | DRSC16879 | 2.26e7 | 2.29e7 | 1.14e7 | 1.31e7 | inactive |
| C901 | DRSC19351 | 3.89e7 | 5.74e7 | 1.83e7 | 2.68e7 | inactive |
| SkpD (SKP1-related D) | DRSC22208 | 3.30e7 | 5.45e7 | 1.67e7 | 2.65e7 | inactive |
| Acf (ATP-dependent chromatin assembly factor large subunit) | DRSC14101 | 3.52e7 | 3.82e7 | 1.49e7 | 1.73e7 | inactive |
| ecd (ecdysoneless) | DRSC08574 | 4.50e7 | 4.01e7 | 2.18e7 | 2.12e7 | inactive |
| SMC2 (Structural maintenance of chromosomes 2) | DRSC07544 | 4.38e7 | 3.65e7 | 2.28e7 | 2.10e7 | inactive |
| CG17127 | DRSC02581 | 3.00e7 | 4.57e7 | 1.41e7 | 1.91e7 | inactive |
| Or59c (Odorant receptor 59c) | DRSC04633 | 3.41e7 | 3.39e7 | 1.71e7 | 1.61e7 | inactive |
| eIF3d1 (eukaryotic translation initiation factor 3 subunit d1) | DRSC16938 | 1.96e7 | 1.41e7 | 1.34e7 | 1.04e7 | active |
| Cht5 (Chitinase 5) | DRSC16470 | 1.98e7 | 4.25e7 | 9.47e6 | 2.16e7 | inactive |
| mxt (mextli) | DRSC00551 | 3.42e7 | – | 1.93e7 | – | inactive |
| CG13560 | DRSC04198 | 4.42e7 | 4.74e7 | 2.14e7 | 2.20e7 | inactive |
| CG16789 | DRSC15155 | 3.32e7 | 3.10e7 | 1.51e7 | 1.55e7 | inactive |
| lncRNA:CR42735 (retired record) | DRSC00921 | 4.23e7 | 4.34e7 | 2.04e7 | 2.01e7 | inactive |
| bbg (big bang) | DRSC11077 | 4.51e7 | 3.79e7 | 2.24e7 | 1.50e7 | inactive |
| bbg (big bang) | DRSC11079 | 3.75e7 | 3.76e7 | 1.75e7 | 1.74e7 | active |
| Cyp49a1 (Cytochrome P450 49a1) | DRSC06737 | 3.89e7 | 4.61e7 | 1.83e7 | 1.87e7 | inactive |
| Cyp49a1 (Cytochrome P450 49a1) | DRSC07367 | 3.74e7 | 4.03e7 | 1.74e7 | 1.72e7 | inactive |
| Drsl5 (Drosomycin-like 5) | DRSC08159 | 2.47e7 | 3.27e7 | 1.38e7 | 1.63e7 | inactive |
| Sod1 (Superoxide dismutase 1) | DRSC11286 | 3.05e7 | 5.26e7 | 1.63e7 | 2.26e7 | inactive |
| PMCA (plasma membrane calcium ATPase) | DRSC17113 | 2.46e7 | 3.53e7 | 1.17e7 | 1.39e7 | inactive |
| PMCA (plasma membrane calcium ATPase) | DRSC17114 | 2.12e7 | 2.50e7 | 1.32e7 | 1.48e7 | inactive |
| PMCA (plasma membrane calcium ATPase) | DRSC17154 | 4.89e7 | 4.07e7 | 4.03e7 | 3.21e7 | inactive |
| Slimp (Seryl-tRNA synthetase-like insect mitochondrial protein) | DRSC13656 | 3.31e7 | 3.63e7 | 1.62e7 | 1.77e7 | inactive |
| Atg9 (Autophagy-related 9) | DRSC06848 | 3.11e7 | 3.36e7 | 1.47e7 | 1.67e7 | inactive |
| CG42534 | DRSC14722 | 4.21e7 | 6.34e7 | 2.12e7 | 2.81e7 | inactive |
| CG42534 | DRSC14759 | 3.68e7 | 6.16e7 | 1.93e7 | 3.00e7 | inactive |
| CG42534 | DRSC16072 | 3.99e7 | 4.87e7 | 2.03e7 | 2.28e7 | inactive |
| CG42534 | DRSC23131 | 3.10e7 | 3.64e7 | 1.52e7 | 1.75e7 | inactive |
| Tmx3 (Thioredoxin-related transmembrane protein 3) | DRSC10471 | 4.00e7 | 5.34e7 | 1.86e7 | 3.38e7 | inactive |
| CG33298 | DRSC02210 | 2.92e7 | 5.03e7 | 1.44e7 | 2.07e7 | inactive |
| CG33298 | DRSC02672 | 5.92e7 | – | 2.58e7 | – | inactive |
